# Experimental data reported in the supplement of paper PMC6411743.
# Protein sequences, listed by entry. Tags and fused reporters are not part of them. Lines headed by an entry give the natural chain unless they say otherwise; changes in a name come on top.
# UniProt Q9UIM3: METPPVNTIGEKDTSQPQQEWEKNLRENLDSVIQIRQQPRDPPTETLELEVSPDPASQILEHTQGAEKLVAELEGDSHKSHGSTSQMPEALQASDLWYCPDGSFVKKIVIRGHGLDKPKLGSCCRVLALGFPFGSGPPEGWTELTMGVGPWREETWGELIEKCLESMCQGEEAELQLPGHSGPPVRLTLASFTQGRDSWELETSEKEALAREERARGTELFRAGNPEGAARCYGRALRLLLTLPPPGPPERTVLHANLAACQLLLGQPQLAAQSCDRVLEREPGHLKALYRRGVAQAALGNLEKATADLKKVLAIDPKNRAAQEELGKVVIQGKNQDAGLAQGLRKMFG
# UniProt Q9Y3D2: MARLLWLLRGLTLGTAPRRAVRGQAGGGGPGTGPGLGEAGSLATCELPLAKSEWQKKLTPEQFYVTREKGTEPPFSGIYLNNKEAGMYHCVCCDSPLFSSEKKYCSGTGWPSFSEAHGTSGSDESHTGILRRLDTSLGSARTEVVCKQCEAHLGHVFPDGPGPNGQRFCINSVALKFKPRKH
# UniProt Q9UMS4: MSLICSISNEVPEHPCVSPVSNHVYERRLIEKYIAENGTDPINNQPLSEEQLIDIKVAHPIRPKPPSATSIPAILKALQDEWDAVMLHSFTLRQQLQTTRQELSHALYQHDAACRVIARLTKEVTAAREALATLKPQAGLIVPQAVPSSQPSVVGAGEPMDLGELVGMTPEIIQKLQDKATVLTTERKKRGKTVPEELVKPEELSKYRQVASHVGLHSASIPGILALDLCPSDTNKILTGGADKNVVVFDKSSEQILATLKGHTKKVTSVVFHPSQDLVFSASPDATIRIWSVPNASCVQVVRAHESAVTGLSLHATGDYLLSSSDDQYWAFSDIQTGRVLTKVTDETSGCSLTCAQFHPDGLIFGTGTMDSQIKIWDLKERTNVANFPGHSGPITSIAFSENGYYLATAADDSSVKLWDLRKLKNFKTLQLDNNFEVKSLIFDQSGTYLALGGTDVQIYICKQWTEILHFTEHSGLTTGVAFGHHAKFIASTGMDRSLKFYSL
# UniProt Q9Y2Z4: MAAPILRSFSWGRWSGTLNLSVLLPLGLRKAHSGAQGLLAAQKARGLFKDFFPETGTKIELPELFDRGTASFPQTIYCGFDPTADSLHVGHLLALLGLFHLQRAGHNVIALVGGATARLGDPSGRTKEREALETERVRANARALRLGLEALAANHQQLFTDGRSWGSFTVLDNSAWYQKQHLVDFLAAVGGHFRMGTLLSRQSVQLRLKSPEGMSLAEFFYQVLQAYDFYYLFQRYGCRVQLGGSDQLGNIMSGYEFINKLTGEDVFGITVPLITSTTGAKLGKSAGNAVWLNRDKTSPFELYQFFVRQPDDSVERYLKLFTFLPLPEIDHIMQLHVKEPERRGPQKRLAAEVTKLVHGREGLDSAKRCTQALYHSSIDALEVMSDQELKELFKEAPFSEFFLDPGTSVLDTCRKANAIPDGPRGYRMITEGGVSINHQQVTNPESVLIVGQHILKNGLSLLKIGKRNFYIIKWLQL
# UniProt Q9UHP3: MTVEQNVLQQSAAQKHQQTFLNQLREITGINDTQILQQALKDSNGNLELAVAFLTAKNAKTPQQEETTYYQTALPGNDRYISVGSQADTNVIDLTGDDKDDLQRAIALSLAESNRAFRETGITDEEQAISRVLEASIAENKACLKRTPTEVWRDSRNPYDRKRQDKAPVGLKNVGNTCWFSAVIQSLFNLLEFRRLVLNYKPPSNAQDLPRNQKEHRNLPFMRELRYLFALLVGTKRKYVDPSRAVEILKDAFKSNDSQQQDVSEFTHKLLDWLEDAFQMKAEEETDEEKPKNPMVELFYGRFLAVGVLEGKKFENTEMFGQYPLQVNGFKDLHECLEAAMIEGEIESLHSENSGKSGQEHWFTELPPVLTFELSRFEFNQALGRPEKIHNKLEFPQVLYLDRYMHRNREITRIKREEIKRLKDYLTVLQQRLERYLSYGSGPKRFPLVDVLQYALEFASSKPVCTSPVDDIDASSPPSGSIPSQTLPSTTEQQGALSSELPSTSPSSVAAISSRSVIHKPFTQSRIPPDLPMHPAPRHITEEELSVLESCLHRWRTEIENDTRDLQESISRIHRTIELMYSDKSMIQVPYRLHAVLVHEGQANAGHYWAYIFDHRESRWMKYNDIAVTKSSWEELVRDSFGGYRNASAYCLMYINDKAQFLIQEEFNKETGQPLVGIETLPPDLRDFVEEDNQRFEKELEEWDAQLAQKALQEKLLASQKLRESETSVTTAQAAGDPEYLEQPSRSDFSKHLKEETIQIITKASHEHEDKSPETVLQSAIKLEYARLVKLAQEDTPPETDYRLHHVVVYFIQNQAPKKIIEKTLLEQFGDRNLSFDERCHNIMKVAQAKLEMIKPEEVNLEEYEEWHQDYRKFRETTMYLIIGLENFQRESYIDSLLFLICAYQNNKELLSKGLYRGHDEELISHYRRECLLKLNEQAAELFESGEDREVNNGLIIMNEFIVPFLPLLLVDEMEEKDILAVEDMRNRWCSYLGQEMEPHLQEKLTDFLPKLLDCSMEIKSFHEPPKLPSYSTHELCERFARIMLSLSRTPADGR
# UniProt Q9Y259: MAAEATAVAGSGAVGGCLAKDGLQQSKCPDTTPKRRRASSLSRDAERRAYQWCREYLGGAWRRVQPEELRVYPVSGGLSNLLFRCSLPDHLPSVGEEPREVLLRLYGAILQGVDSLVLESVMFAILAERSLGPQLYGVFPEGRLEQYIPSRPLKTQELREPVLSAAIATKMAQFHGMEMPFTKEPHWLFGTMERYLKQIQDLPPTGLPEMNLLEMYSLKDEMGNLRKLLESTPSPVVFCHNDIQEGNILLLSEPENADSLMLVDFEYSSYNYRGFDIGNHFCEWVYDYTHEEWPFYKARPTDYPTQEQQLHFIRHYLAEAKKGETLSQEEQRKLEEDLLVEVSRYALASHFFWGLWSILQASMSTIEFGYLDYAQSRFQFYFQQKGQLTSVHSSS
# UniProt Q9Y2V2: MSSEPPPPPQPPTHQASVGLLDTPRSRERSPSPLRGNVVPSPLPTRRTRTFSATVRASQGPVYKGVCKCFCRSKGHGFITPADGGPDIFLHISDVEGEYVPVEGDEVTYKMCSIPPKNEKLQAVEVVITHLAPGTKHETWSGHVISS
# UniProt Q9UGU0: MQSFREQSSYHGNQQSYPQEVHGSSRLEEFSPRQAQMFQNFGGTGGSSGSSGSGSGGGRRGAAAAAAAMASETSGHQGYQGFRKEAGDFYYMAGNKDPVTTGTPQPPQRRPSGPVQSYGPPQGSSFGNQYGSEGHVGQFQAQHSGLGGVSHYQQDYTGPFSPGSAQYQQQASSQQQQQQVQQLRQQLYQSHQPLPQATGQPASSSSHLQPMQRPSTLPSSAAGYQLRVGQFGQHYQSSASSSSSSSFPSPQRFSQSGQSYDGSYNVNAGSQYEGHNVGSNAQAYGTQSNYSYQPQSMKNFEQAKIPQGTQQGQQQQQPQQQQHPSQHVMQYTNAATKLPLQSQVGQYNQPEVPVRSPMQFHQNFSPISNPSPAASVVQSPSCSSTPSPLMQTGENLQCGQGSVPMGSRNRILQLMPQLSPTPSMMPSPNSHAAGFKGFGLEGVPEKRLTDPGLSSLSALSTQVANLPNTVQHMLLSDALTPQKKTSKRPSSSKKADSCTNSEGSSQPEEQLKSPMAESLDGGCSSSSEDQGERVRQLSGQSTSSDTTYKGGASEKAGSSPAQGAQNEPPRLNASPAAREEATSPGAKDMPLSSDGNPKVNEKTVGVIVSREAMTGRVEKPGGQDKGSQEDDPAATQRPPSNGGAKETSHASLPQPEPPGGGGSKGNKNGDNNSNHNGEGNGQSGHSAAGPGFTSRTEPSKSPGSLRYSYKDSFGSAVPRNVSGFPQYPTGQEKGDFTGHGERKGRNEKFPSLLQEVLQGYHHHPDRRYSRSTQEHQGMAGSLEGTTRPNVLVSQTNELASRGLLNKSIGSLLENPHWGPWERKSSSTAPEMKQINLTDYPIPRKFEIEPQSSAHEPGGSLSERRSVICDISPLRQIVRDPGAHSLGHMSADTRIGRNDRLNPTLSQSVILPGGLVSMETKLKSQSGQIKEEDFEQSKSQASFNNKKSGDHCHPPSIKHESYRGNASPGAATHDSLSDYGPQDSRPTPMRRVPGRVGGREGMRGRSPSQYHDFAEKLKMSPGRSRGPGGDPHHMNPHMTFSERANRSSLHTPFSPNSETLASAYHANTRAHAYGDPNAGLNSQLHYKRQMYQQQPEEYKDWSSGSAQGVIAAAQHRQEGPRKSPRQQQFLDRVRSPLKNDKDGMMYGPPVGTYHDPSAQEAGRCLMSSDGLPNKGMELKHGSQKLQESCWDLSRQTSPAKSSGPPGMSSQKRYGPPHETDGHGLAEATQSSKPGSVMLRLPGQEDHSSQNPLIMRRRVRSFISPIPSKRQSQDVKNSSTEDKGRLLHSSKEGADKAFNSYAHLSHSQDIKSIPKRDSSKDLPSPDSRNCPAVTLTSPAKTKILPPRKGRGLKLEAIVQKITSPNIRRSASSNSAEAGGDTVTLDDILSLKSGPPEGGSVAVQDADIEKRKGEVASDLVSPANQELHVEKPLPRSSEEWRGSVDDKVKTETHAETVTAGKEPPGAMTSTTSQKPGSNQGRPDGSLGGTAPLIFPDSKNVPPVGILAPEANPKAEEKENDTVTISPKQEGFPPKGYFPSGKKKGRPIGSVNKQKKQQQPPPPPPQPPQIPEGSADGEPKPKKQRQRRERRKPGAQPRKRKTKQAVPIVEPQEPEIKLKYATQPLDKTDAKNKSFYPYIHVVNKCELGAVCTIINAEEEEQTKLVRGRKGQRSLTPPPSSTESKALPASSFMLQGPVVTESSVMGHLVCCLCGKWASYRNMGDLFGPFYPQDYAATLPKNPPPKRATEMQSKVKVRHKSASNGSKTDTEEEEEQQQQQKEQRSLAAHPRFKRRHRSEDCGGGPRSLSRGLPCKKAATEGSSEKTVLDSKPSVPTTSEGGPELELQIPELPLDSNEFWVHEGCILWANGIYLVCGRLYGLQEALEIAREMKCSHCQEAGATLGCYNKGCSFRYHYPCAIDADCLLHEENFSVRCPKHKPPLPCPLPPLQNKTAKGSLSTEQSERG
# UniProt Q9UK76: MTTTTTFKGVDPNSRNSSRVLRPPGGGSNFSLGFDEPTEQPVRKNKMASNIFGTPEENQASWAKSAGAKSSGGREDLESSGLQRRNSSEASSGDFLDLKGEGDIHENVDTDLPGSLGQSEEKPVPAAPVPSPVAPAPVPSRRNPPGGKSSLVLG
# UniProt Q9UNZ2: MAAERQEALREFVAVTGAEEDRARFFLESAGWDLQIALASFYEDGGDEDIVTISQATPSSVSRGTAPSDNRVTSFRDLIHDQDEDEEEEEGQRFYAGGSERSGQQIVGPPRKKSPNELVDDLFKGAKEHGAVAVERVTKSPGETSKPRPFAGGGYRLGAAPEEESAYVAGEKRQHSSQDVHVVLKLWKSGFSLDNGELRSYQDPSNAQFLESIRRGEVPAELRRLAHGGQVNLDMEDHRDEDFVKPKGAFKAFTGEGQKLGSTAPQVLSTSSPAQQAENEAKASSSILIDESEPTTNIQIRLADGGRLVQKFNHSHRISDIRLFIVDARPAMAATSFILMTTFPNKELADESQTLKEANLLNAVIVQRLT
# UniProt Q9Y2G5: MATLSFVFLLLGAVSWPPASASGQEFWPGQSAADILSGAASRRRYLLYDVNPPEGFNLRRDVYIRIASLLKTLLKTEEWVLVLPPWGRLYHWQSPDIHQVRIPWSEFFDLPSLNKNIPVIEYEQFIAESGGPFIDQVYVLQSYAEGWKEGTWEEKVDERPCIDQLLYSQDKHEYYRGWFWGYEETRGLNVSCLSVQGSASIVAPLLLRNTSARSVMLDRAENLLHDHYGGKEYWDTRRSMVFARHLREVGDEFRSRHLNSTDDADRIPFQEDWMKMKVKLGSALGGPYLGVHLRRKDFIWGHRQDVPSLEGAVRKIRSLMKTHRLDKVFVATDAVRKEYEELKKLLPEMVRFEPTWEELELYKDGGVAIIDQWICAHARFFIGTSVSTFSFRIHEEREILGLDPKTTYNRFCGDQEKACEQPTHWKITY
# UniProt Q9ULV4, whole entry: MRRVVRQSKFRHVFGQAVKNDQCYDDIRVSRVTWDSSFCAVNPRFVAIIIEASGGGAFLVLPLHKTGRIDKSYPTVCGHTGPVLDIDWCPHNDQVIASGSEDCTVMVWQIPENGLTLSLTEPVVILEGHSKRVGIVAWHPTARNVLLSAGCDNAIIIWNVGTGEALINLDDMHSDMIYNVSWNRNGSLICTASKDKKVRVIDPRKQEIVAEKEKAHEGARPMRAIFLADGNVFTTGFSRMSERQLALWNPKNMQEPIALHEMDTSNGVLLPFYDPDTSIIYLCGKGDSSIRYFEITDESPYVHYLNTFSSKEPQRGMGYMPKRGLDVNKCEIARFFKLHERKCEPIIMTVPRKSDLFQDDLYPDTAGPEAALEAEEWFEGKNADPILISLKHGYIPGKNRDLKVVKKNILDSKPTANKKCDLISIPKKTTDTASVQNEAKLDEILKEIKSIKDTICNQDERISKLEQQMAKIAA
# ± gives the standard deviation of the averaged measurements. The entries are a selection whose mix differs from that of the whole data set.
# Compound: Nc1ncnc2c1ncn2[C@@H]1O[C@H](COP(=O)(O)OP(=O)(O)NP(=O)(O)O)[C@@H](O)[C@H]1O [adenylyl imidodiphosphate]
# Experiment: NP40-soluble protein abundance relative to vehicle (solubility fold change) (ratio); higher = more soluble protein in presence of AMP-PNP
# Summary of the method: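 Jurkat crude lysate (Dounce-homogenised) was treated with eight concentrations from 0.1 to 10 mM for 10 min at room temperature, then 3 min at 37 °C. It was solubilised with 0.8% NP40 and benzonase (60 min, 4 °C) and ultracentrifuged, and the supernatant was TMT-labelled for LC-MS/MS. Intensities were vsn-normalised, and the value is the fold change against the NP40-processed vehicle per replicate, from three independent experiments.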
Target,NP40-soluble protein abundance (concentration: 1mM),NP40-soluble protein abundance (concentration: 2mM),NP40-soluble protein abundance (concentration: 4mM),NP40-soluble protein abundance (concentration: 6mM),NP40-soluble protein abundance (concentration: 8mM),NP40-soluble protein abundance (concentration: 10mM)
FKBPL (UniProt Q9UIM3),1 ± 0.024,1.02 ± 0.019,0.982 ± 0.034,0.97 ± 0.038,0.989 ± 0.034,1.01 ± 0.038
NOL7 (UniProt Q9UMY1),1.01 ± 0.025,1.04 ± 0.015,1.03 ± 0.025,1.05 ± 0.026,1.04 ± 0.024,1.05 ± 0.019
UniProt Q9UHW5 and related entries,0.99 ± 0.018,0.973 ± 0.076,1 ± 0.034,0.974 ± 0.03,0.98 ± 0.02,0.967 ± 0.016
AFF4 (UniProt Q9UHB7),1.04 ± 0.039,1.09 ± 0.039,1.16 ± 0.044,1.16 ± 0.066,1.13 ± 0.04,1.18 ± 0.071
UniProt Q9UJ83 and related entries,0.961 ± 0.018,0.908 ± 0.09,0.946 ± 0.017,0.927 ± 0.029,0.941 ± 0.031,0.918 ± 0.0021
UniProt Q9UII2,1.04 ± 0.078,1.11 ± 0.039,0.957 ± 0.067,0.921 ± 0.09,0.835 ± 0.013,0.901 ± 0.1
UniProt Q9UPT9 and related entries,0.953 ± 0.022,0.953 ± 0.035,0.96 ± 0.025,0.922 ± 0.027,0.936 ± 0.021,0.922 ± 0.02
DCTN4 (UniProt Q9UJW0),0.965 ± 0.017,0.946 ± 0.045,0.945 ± 0.049,0.963 ± 0.053,0.942 ± 0.049,0.954 ± 0.11
MSRB2 (UniProt Q9Y3D2),1 ± 0.051,1.01 ± 0.039,1 ± 0.041,0.976 ± 0.016,0.973 ± 0.03,0.974 ± 0.053
PRPF19 (UniProt Q9UMS4),1.01 ± 0.03,0.966 ± 0.045,1.03 ± 0.049,1.15 ± 0.023,1.167 ± 0.0091,1.15 ± 0.084
YARS2 (UniProt Q9Y2Z4),0.972 ± 0.031,0.935 ± 0.037,0.968 ± 0.022,0.936 ± 0.036,0.965 ± 0.014,0.935 ± 0.016
CNOT7 (UniProt Q9UIV1),0.99 ± 0.015,0.958 ± 0.031,0.995 ± 0.031,1 ± 0.039,1.03 ± 0.045,0.995 ± 0.052
UniProt Q9UHP3 and related entries,0.966 ± 0.013,0.997 ± 0.015,0.975 ± 0.026,0.963 ± 0.023,0.964 ± 0.013,0.971 ± 0.024
UniProt Q9UER7 and related entries,1.05 ± 0.04,1.06 ± 0.031,1.03 ± 0.012,1 ± 0.037,1 ± 0.026,1.01 ± 0.017
PARP4 (UniProt Q9UKK3),0.995 ± 0.027,0.974 ± 0.0072,0.957 ± 0.015,0.99 ± 0.033,0.948 ± 0.011,0.954 ± 0.039
SLC39A10 (UniProt Q9ULF5),0.998 ± 0.021,1.07 ± 0.045,1.01 ± 0.026,1 ± 0.029,0.985 ± 0.04,0.994 ± 0.036
UniProt Q9Y259 and related entries,1.01 ± 0.011,0.989 ± 0.021,0.997 ± 0.03,0.98 ± 0.024,0.9913 ± 0.0044,0.976 ± 0.017
CARHSP1 (UniProt Q9Y2V2),1.03 ± 0.047,1.11 ± 0.11,1.07 ± 0.052,1.06 ± 0.029,1.05 ± 0.042,1.08 ± 0.04
CGGBP1 (UniProt Q9UFW8),1.03 ± 0.021,1.13 ± 0.066,1.11 ± 0.059,1.13 ± 0.033,1.134 ± 0.0091,1.15 ± 0.086
UniProt Q9UGU0 and related entries,1.02 ± 0.071,1.02 ± 0.059,1.07 ± 0.074,1.14 ± 0.098,1.14 ± 0.082,1.22 ± 0.097
GIT1 (UniProt Q9Y2X7),1.02 ± 0.045,1.029 ± 0.0055,1.03 ± 0.011,1.02 ± 0.033,0.9989 ± 0.0093,1.01 ± 0.043
UniProt Q9UK76,1.08 ± 0.088,1.1 ± 0.08,1.03 ± 0.067,0.982 ± 0.092,0.893 ± 0.037,0.973 ± 0.1
UniProt Q9Y3C4 and related entries,1 ± 0.012,0.964 ± 0.026,0.971 ± 0.012,0.976 ± 0.064,0.971 ± 0.031,0.977 ± 0.02
NSFL1C (UniProt Q9UNZ2),0.977 ± 0.023,1.02 ± 0.047,0.9704 ± 0.0086,0.954 ± 0.036,0.941 ± 0.011,0.9341 ± 0.005
POFUT2 (UniProt Q9Y2G5),0.97 ± 0.033,0.967 ± 0.011,0.952 ± 0.011,0.981 ± 0.015,1 ± 0.022,0.99 ± 0.01
NOTCH3 (UniProt Q9UM47),0.977 ± 0.029,1.02 ± 0.067,0.992 ± 0.022,0.974 ± 0.035,0.97 ± 0.03,0.963 ± 0.039
UniProt Q9ULV4 and related entries,1.07 ± 0.04,1.11 ± 0.056,1.12 ± 0.026,1.26 ± 0.015,1.33 ± 0.018,1.39 ± 0.037
DICER1 (UniProt Q9UPY3),1 ± 0.03,0.966 ± 0.073,1 ± 0.039,0.963 ± 0.041,0.957 ± 0.03,0.955 ± 0.033
UniProt Q9UPN7,0.999 ± 0.044,1.01 ± 0.033,0.982 ± 0.025,0.9756 ± 0.0079,0.975 ± 0.035,0.956 ± 0.025
UniProt Q9UNA1 and related entries,0.985 ± 0.031,0.983 ± 0.021,1.01 ± 0.045,1.01 ± 0.015,0.992 ± 0.02,1 ± 0.03

# Limited to NP40-soluble protein abundance (concentration: 4mM) (two entries from above):
Target	NP40-soluble protein abundance (concentration: 4mM)
GIT1 (UniProt Q9Y2X7)	1.03 ± 0.011
UniProt Q9UK76	1.03 ± 0.067
